# Experimental data from PubChem BioAssay AID504594 (Broad Institute, 2011).
# In all, about 2,000 compounds went through this assay and fewer than 10 were called active.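 The calls were made as follows: active = growth inhibition of at least 75% in every replicate, which also brings the mean inhibition to 75% or more; inconclusive = mean inhibition 75% or more but some replicate under 75%; inactive = the rest.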 Some of the results follow.
# Assay: reduced viability of yeast carrying PfHsp90 – S. cerevisiae, BacTiter-Glo luminescence, antimalarial PfHsp90 inhibitor project, primary screen (AID 504594);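 also: 0% = DMSO neutral control wells and 100% = 20 µM radicicol control wells; higher value means stronger growth inhibition because the sign is flipped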
# Settings: S. cerevisiae expressing PfHsp90, BacTiter-Glo growth, 48 h; at 9.4 µM; stronger effect = higher value
row,Compound,growth inhibition
1,Cc1cc(C)nc(NS(=O)(=O)c2ccc(N)cc2)n1,inactive: 6.5%
2,O=C(c1ccc(Cl)cc1)C1CCCN(C(=O)/C=C/c2ccccn2)C1 (centres undefined),inactive: 2.71%
3,Cc1ccc(C(=O)Nc2ccc(O)cc2C(=O)O)cc1C,inactive: 4.07%
4,COc1ccc(C2OC(=O)Cc3cc(OC)c(OC)cc32)cc1 (centres undefined),inactive: -17.5%
5,CC(/C=C1\SC(=O)N(CCCC(=O)O)C1=O)=C\c1ccccc1,inactive: 7.7%
6,CCc1cc(/C(Cc2ccccn2)=N\O)c(O)cc1O,inactive: 13.6%
7,CCc1cc(-c2[nH]ncc2-c2ccc3c(c2)OCO3)c(O)cc1O,inactive: -0.444%
8,O=C(O)c1ccc(N2C(=O)/C(=C\c3ccccc3)N=C2c2ccccc2)cc1,inactive: 17.7%
9,COC(=O)c1ccc(CC(=O)c2ccc(O)cc2O)o1,inactive: 5.84%
10,CO[C@H]1C=CO[C@@]2(C)Oc3c(C)c(O)c4c(O)c(c(C=NN5CCN(C)CC5)c(O)c4c3C2=O)NC(=O)C(C)=CC=C[C@H](C)[C@H](O)[C@@H](C)[C@@H](O)[C@@H](C)[C@H](OC(C)=O)[C@@H]1C,inactive: -2.65%
11,CC(=O)Nc1nnc(S(N)(=O)=O)s1,inactive: -1.68%
12,CC(C)Oc1ccc2c(=O)c(-c3ccccc3)coc2c1,inactive: 8.58%
13,COc1cc2[nH]c3c(=O)n(CCN4CCOCC4)cnc3c2cc1OC,inactive: 6.57%
14,CC(C)N(C(=O)Cc1ccccc1[N+](=O)[O-])C(C)C,inactive: 4.35%
15,COc1cc(/C=C/C(=O)N2CCCC2)cc(OC)c1OC,inactive: 2.42%
16,COc1ccc(S(=O)(=O)N2CCN(C(=O)COc3ccc4c(C)cc(=O)oc4c3)CC2)cc1,inactive: -0.116%
17,CC(=O)C1=C(O)C(=O)N(Cc2cccnc2)C1c1ccc(C(C)C)cc1 (centres undefined),inactive: -3.02%
18,COc1cc2cc(C)nc(Cc3cccc4ccccc34)c2cc1OC,inactive: 6.84%
19,CCN(CC)CCNC(=O)c1ccc(N)cc1,inactive: 13%
20,C[N+](C)(C)CCCC(=O)c1ccc2c(c1)OCO2,inactive: 11.2%
21,OC[C@@H](O)[C@@H](O[C@H]1O[C@H](CO)[C@@H](O)[C@H](O)[C@H]1O)[C@H](O)[C@@H](O)CO,inactive: -11.2%
22,COC(=O)c1ccccc1OCCOCCOc1cccc2ccc(C)nc12,inactive: -4.21%
23,O=C(CCCN1C(=O)/C(=C\c2cccc(Br)c2)SC1=S)Nc1cccnc1,inactive: 7.47%
24,CC1(C)c2ccccc2N2CC(=O)N(CC(N)=O)C21C (centres undefined),inactive: 10.5%

row,Compound,growth inhibition
1,COCC(C)NC(=O)c1ccc(CN2CCc3ccccc3C2)cc1 (centres undefined),inactive: 8.71%
2,C[C@@H]1CCC[C@H](C)N1NC(=O)c1ccc(Cl)c(S(N)(=O)=O)c1,inactive: -3.25%
3,CC(C)C(CCN1C(=O)CCC1=O)C1CCOC(C)(C)C1 (centres undefined),inactive: -4.23%
4,Cc1ccc2[nH]c3c(=O)n(CCCN4CCN(C)CC4)cnc3c2c1,inactive: 2.95%
5,CC(C)[C@H](NC(=O)[C@@H]1CSCN1C(=O)OC(C)(C)C)C(=O)NCC1CCC(C(=O)O)CC1 (some centres undefined),inactive: 6.5%
6,Cc1ccc2c(c1)c1c3n2CCCN(Cc2ccccc2)C3CCC1 (centres undefined),inactive: 0.335%
7,COc1ccc(C(=O)[C@H]2[C@H]3C(=O)N(c4ccccc4)C(=O)[C@H]3C3C=CC=NN32)cc1 (some centres undefined),inactive: 15.9%
8,CCc1c(C)c2ccc(OCC(=O)OC(C)C)c(C)c2oc1=O,inactive: 4.15%
9,CC1=NS(=O)(=O)c2cc(Cl)ccc2N1,inactive: -13.6%
10,CC(C)NCC(O)COc1ccc(CC(N)=O)cc1 (centres undefined),inactive: 2.22%
11,CCOC(=O)[C@H]1O[C@@H]1C(=O)N[C@@H](CC(C)C)C(=O)NCCC(C)C,inactive: 6.21%
12,CC[C@H](CO)NCCN[C@H](CC)CO,inactive: -8.88%
13,Cc1ccccc1NC(=O)C1(C)Cc2ccccc2C(=O)O1 (centres undefined),inactive: 8.78%
14,Cc1cc(-c2nn(-c3ccccc3F)cc2CN2CCC(O)CC2)c(C)s1,inactive: 14.1%
15,OC(COCc1ccccc1)CN1CCN(Cc2ccc3c(c2)OCO3)CC1 (centres undefined),inactive: -0.683%
16,O=C(NCC1CCCO1)c1ccc(OC2CCN(C(=O)C3CC3)CC2)cc1 (centres undefined),inactive: -13.6%
17,O=C(O)C1CCN(C(=O)COc2ccc3c4c(c(=O)oc3c2)CCC4)CC1,inactive: 9.44%
18,CC1(C)CC(C(CC(=O)N2CCCC2)Cc2ccccc2)CCO1 (centres undefined),inactive: -4.75%
19,Cc1ccc(OCc2nc(-c3cccnc3)no2)cc1C,inactive: -16.7%
20,Nc1cnn(C2OC(CO)C(O)C2O)c(=O)n1 (centres undefined),inactive: -3.71%
21,O=C(OCC1OC2OC3(CCCCC3)OC2C2OC3(CCCCC3)OC12)c1ccccc1 (centres undefined),inactive: -3.4%
22,c1ccc2c3c(c(CN4CCCCC4)cc2c1)COC3,inactive: 0.356%
23,Cc1ccc(CSCC(=O)N2CCCC2)cc1,inactive: -5.17%
24,CCC(C(=O)Nc1ccc2c(c1)OCCO2)c1ccccc1 (centres undefined),inactive: -7.31%

# Individual results from the entries so far.
# In growth inhibition, CCOC(=O)[C@H]1O[C@@H]1C(=O)N[C@@H](CC(C)C)C(=O)NCCC(C)C has the entry inactive: 6.21%
# In growth inhibition, CC(C)[C@H](NC(=O)[C@@H]1CSCN1C(=O)OC(C)(C)C)C(=O)NCC1CCC(C(=O)O)CC1 (some centres undefined) has the entry inactive: 6.5%
# In growth inhibition, CC(C)C(CCN1C(=O)CCC1=O)C1CCOC(C)(C)C1 (centres undefined) has the entry inactive: -4.23%

# Additional structures follow.

row,Compound,growth inhibition
1,Cc1ccc(C2CC(=O)C(C=NCCN3CCN(C(=S)Nc4ccccc4)CC3)=C(O)C2)cc1 (centres undefined),inactive: 5.87%
2,COc1ccc(C2C(C#N)=C(N)Oc3cc(C)[nH]c(=O)c32)c(OC)c1OC (centres undefined),inactive: -8.42%
3,CCC1(c2ccccc2)C(=O)NCNC1=O,inactive: 9.69%
4,O=C(CSCc1ccccc1)NCCCN1CCOCC1,inactive: 7.68%
5,CCOc1ccc(NC(=O)N[C@@H](CCSC)C(=O)OC)cc1,inactive: -22.7%
6,C[C@]12CCC(=O)C=C1CC[C@@H]1[C@@H]2CC[C@@]2(C)[C@H]1CC[C@]2(O)C(=O)CO,inactive: -15.5%
7,Cc1oc2ccc(OC(=O)c3cccs3)cc2c1C(=O)OC(C)C,inactive: 20%
8,COc1ccc(C2NCCC3(O)CCCCC23)c(OC)c1OC (centres undefined),inactive: -8.77%
9,c1ccc(-c2ccc(C(c3ccccc3)n3ccnc3)cc2)cc1 (centres undefined),active: 91.6%
10,CN(C)CCC(c1ccc(Br)cc1)c1ccccn1 (centres undefined),inactive: 1.8%
11,CC(=O)NC1C(OCc2ccccc2)OC(COC(C)=O)C(OC(C)=O)C1OC(C)=O (centres undefined),inactive: -4.4%
12,CC(=O)[C@@]1(O)CC[C@H]2[C@@H]3CCC4=CC(=O)CC[C@]4(C)[C@H]3CC[C@@]21C,inactive: 1.16%
13,CC(C)CC(=O)N(Cc1ccc(F)cc1)C1CCS(=O)(=O)C1 (centres undefined),inactive: -4.59%
14,COc1ccccc1NC(=O)Cn1c(C)cc(=O)c2cccc(OC)c21,inactive: -4.81%
15,O=C(/C=C/c1ccc(Cl)cc1)NCCc1ccccc1,inactive: -7.92%
16,COc1ccc(-c2nc3c(=O)n(C)c(=O)[nH]c3n2CCc2ccccc2)cc1,inactive: -11.2%
17,CCN(CC)C(=O)c1ccc(O)c(OC)c1,inactive: -8.19%
18,CC1(C)CC(NCc2ccccc2)CCO1 (centres undefined),inactive: -19.1%
19,CCc1c(C(C)=O)oc2ccc3c(C)cc(=O)oc3c12,inactive: -7.18%
20,O=C1c2ccccc2N2C(=O)c3ccccc3C2N1Cc1ccco1 (centres undefined),inactive: -6.35%
21,CC12CN3CC(C)(CN(C1)C3c1ccc([N+](=O)[O-])o1)C2 (centres undefined),inactive: -3.86%
22,COc1ccc(CCN2C(=O)CSC2c2ccc(OC)c(OC)c2)cc1OC (centres undefined),inactive: 2.57%
23,Clc1ccc2c(c1)CCc1cccnc1C2=C1CCNCC1,inactive: 6.97%
24,Cc1csc(N)n1,inactive: -7.1%

row,Compound,growth inhibition
1,COc1ccc(O)c(C2=Nc3ccccc3N=C(c3ccccc3)C2)c1,inactive: -7.9%
2,CCCNC(=O)NS(=O)(=O)c1ccc(Cl)cc1,inactive: 19.8%
3,CC(=O)O[C@]1(C(C)=O)CC[C@H]2[C@@H]3C=C(Cl)C4=CC(=O)CC[C@]4(C)[C@H]3CC[C@@]21C,inactive: -11.2%
4,NC(N)=NC(N)=Nc1ccc2ccccc2c1,inactive: -11.6%
5,Cc1cc(C(=O)NC(CC(C)C)C(=O)O)cc(C)c1[N+](=O)[O-] (centres undefined),inactive: -5.58%
6,CC(C)CN(C)Cc1c(C(=O)N2CCc3ccccc3C2)nc2ccc(Cl)cn12,inactive: -1.22%
7,COc1ccc(C(=O)N2c3cc4c(cc3C(C)=CC2(C)C)OCO4)cc1,inactive: 10.9%
8,COc1ccc(CCn2c(C)cc3c(c2=O)C(c2ccncc2)C(C#N)=C(N)O3)cc1OC (centres undefined),inactive: -3.67%
9,Cc1ncc(CN2CCC(CO)(CCc3ccccc3)CC2)s1,inactive: 17.3%
10,O=C(/C=C/c1ccccc1)NCC1(c2ccccc2)CCOCC1,inactive: -5.5%
11,CC1(C)C2CCC1(C)C(OCC[N+](C)(C)CC(=O)OC1CCCCC1)C2 (centres undefined),inactive: -1.87%
12,CCOc1ccc(N2C(=O)CNC2=S)cc1,inactive: -1.5%
13,Nc1nc2c(ncn2COC(CO)CO)c(=O)[nH]1,inactive: 12.1%
14,CC(=O)OC[C@H]1O[C@@H](Sc2cccc3cccnc23)[C@H](OC(C)=O)[C@@H](OC(C)=O)[C@H]1OC(C)=O,inactive: 3.67%
15,CC(C)CCNC(=O)[C@H](CC(C)C)NC(=O)[C@H]1O[C@@H]1C(=O)O,inactive: -0.406%
16,CNCCc1ccccn1,inactive: -0.0227%
17,CC(C)CC(NC(=O)c1cccc(Cl)c1)C(=O)O (centres undefined),inactive: 1.31%
18,CCOc1cc2c(cc1OCC)C(c1ccccc1)N(c1ccc(C(=O)O)cc1)C(=O)C2 (centres undefined),inactive: 7.83%
19,O=C(CCN1CCC(c2ccccc2)C1)c1ccc2c(c1)OCCO2 (centres undefined),inactive: 1.38%
20,c1ccc(Cn2nnc3cnccc32)cc1,inactive: 11.3%
21,CCOc1ccc(C(=O)/C=C/c2cc(OC)c(OC)c(OC)c2)cc1,inactive: 6.75%
22,COc1ccc(NC(=O)CC2C(=O)N(C)C(=S)N2Cc2ccncc2)cc1 (centres undefined),inactive: 1.18%
